In patent CN115724981A:
These are yes or no findings as the source states them, for the method shown. Some entries that bind do so weakly or less than the wild type.

Protein sequences, listed by entry. Tags and fused reporters are not part of them. Residues count along the entry.
UniProt P11802, residues 2-303: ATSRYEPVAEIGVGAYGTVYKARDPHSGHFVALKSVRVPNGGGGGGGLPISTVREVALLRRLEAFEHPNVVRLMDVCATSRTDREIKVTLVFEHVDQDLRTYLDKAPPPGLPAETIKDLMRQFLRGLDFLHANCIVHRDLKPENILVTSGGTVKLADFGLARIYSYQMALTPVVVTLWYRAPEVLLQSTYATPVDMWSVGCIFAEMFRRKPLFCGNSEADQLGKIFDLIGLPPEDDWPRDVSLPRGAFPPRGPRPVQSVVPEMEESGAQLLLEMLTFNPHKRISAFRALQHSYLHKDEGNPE

Assays:
[1] = biological target: CDK4(细胞周期蛋白依赖性激酶4) in结肠癌组织 (human) (UniProt P11802); assay: IHC on colon cancer sections
[2] = biological target: CDK4(细胞周期蛋白依赖性激酶4) in结肠癌组织 (human) (UniProt P11802); assay: IHC on colon cancer sections, antibody at 0.08 μg/mL

B1: CDK4重组抗体 (antibody, mouse IgG1, kappa, V domains shown)
VH: QVQLKQSGPGLVQPSQSLSITCTVSDFSLTRYAIHWVRQSPGKGLEWLGVIWRGGNTDYNAVFMSRLSITKDTSKSQVFFKMNSLQADDTAIYYCAKDGYGTMDYWGQGTSVTVSS
VL: QIVLTQSPAIMSASPGEKVTITCSASSSVSYMHWFQQKPGTSPKLWIYSTSNLASGVPARFSGSGSGTSYSLTISRMEAEDAATYYCQQRSSYPPTFGGGTKLEIKR
binding [1]: binds
binding [2]: binds
